Experimental data from patent US20150204870A1.
Results are given in words; binding and its absence hold for the method and conditions named. Some results given as binding are weak or reduced against the parent protein; the word gives no strength. Each block holds one molecule with its values, some of them ahead of it.

By UniProt entry, the sequences of proteins in these tests, tags left out. Where a name states a change or a piece, a line headed by the entry shows the natural chain unless it says otherwise.
UniProt Q00022: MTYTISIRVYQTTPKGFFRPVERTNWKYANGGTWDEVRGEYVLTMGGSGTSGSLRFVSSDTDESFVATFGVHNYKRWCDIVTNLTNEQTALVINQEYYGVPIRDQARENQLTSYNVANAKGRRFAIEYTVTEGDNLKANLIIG
UniProt A8NSH3: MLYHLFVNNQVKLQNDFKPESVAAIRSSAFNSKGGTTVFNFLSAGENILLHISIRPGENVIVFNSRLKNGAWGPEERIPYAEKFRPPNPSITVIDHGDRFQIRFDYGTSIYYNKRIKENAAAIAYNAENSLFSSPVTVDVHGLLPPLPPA

Tests used:
[1] = target: T1, podocalyxin (glycoprotein secreted into the culture supernatant of undifferentiated ES/iPS cells) (human) (UniProt O00592); assay: lectin blot of the fraction of ES/iPS culture supernatant bound to rBC2LCN beads
T1 sequence (looked up): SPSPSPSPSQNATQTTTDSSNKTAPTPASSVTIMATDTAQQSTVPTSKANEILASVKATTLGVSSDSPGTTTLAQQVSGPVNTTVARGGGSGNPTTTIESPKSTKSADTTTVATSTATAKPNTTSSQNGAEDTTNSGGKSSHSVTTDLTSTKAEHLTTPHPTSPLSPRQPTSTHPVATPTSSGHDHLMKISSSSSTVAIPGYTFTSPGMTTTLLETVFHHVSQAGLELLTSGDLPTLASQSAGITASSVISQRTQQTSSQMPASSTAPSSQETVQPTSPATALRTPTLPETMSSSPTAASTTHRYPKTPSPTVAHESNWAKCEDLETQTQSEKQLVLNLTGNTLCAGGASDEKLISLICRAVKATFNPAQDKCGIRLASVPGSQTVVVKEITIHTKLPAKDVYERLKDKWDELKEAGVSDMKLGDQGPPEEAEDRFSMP

[2] = target: T1, podocalyxin (glycoprotein secreted into the culture supernatant of undifferentiated ES/iPS cells) (human); assay: sandwich ELISA, biotinylated rBC2LCN on streptavidin plate, HRP-labelled detection lectin, A450
[3] = target: T1, podocalyxin (glycoprotein secreted into the culture supernatant of undifferentiated ES/iPS cells) (human); assay: Cy3-labelled lectin overlay on marker captured from iPS culture supernatant by immobilised rBC2LCN
[4] = target: T1, podocalyxin (glycoprotein secreted into the culture supernatant of undifferentiated ES/iPS cells) (human); assay: lectin-lectin sandwich on glass slide, biotinylated rAAL as detection lectin on marker captured by rBC2LCN

- binding [1]: binds
- binding [2]: binds
- binding [3]: binds
Molecule: rABA (recombinant Agaricus bisporus lectin) (from UniProt Q00022 2-143)

- binding [2]: binds
- binding [3]: binds
Molecule: rCGL2 (recombinant Coprinopsis cinerea lectin CGL2) (from UniProt A8NSH3 1-150)

- binding [3]: binds
- binding [4]: binds
B1: rAAL (recombinant Aleuria aurantia lectin) (protein, UniProt P18891 2-313, looked up)
chain: PTEFLYTSKIAAISWAATGGRQQRVYFQDLNGKIREAQRGGDNPWTGGSSQNVIGEAKLFSPLAAVTWKSAQGIQIRVYCVNKDNILSEFVYDGSKWITGQLGSVGVKVGSNSKLAALQWGGSESAPPNIRVYYQKSNGSGSSIHEYVWSGKWTAGASFGSTVPGTGIGATAIGPGRLRIYYQATDNKIREHCWDSNSWYVGGFSASASAGVSIAAISWGSTPNIRVYWQKGREELYEAAYGGSWNTPGQIKDASRPTPSLPDTFIAANSSGNIDISVFFQASGVSLQQWQWISGKGWSIGAVVPTGTPAGW
